According to patent US11091786B2 (Nanyang Technological University, priority 2015, dated 2021):

Experiment: general procedure: Fmoc solid-phase peptide synthesis; rink-amide-MBHA resin (0.7 mmol/g) for Fmoc; MBHA resin (1.03 mmol/g) for Boc thiodepsipeptides; PyBOP/DIEA; DIC/HOBT/DMAP for ester coupling
Conditions: conjugation step

(Ac-RYRLNRIβA)8K4K2KY
conjugation yield: >85%
